# Results of single-concentration screens

Source: ChEMBL document CHEMBL3988442, “University of Dundee, Small-Polar-MMV Screening Library” (2021).

Values are the deposited “Percent Effect”, in %. The record does not define 0% and 100%; most values in the screen are far below 50% and negative numbers occur (in some assays of this library far below -100). Compounds were drawn at random from those tested, without regard to their results. Two or more numbers in one place are separate tests of the same structure; such repeats can differ widely.

Mtb glucose medium: 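Phenotypic screen: M. tuberculosis growth, glucose 7H9 medium, 3 days; the read-out is not stated. Tested at 50 µM. Higher reads as more growth inhibition (inferred: compounds with an IC50 in retests scored well above the rest). About 69,000 compounds were tested under these conditions; 1.1% (about 760) showed 50% or more at least once.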
Mtb cholesterol medium: 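Whole-cell growth test on Mycobacterium tuberculosis, read after 4 days in a medium based on cholesterol and the lipid DPPC; the read-out is not stated. Concentration: 50 µM. Direction is inferred from retests: higher values go with more growth inhibition. Of about 69,000 compounds tested this way, about 370 (0.54%) reached 50% or more in at least one test.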

| structure | Mtb glucose medium | Mtb cholesterol medium |
|---|---|---|
| `[H][C@@]12CCN(S(=O)(=O)CC)[C@]1([H])CCC(=O)N2CCOC` | 6.238% | -0.4803% |
| `CC(C)(C)c1cn(C[C@H]2CC3CCN2C[C@@H]3C(=O)N2CCOCC2)nn1` (some centres unmarked) | -7.438% and -5.913% | -15.58% |
| `O=C(c1ccccc1)C1CCN(Cc2cc3c(cc2O)CCC3)CC1` | 25.36% | 1.626% |
| `CCN1CCN(CCC(=O)NC2CC(c3cccc(Cl)c3)C2)CC1` (centres unmarked) | 38.71% | -1.659% |
| `O=C(O)C(F)(F)F.O=C(O)C(F)(F)F.O=C(O)C(F)(F)F.[H][C@]12C[C@@H](CN3CCCC3)N(C)[C@@]1([H])CCN(Cc1ccoc1)C2` | -3.038% and -37.85% | -19.07% |
| `CCOc1ccc(CC(CNC(=O)c2sccc2C)C(N)=O)cc1` (centres unmarked) | -7.313% | 3.38% |
| `O=S1(=O)COCCN1CCOc1ccc(F)cc1` | -19.15% | -14.82% |
| `O=C(Nc1ccccc1)C1CN(Cc2ccsc2)CC12CCOCC2.O=C(O)C(F)(F)F` (centres unmarked) | 14.11% and 0.2723% | -6.12% |
| `CCn1nc(C)c2c1cnn2CC(=O)N1CCN(C)CC1` | 9.978% | 5.153% |
| `Cn1ccnc1COc1ccc(CO)cc1` | -1.67% | -29.31% |
| `COCCN(C)C(=O)Nc1ccn(-c2cccc(C(F)(F)F)c2)n1` | 21.59% and -0.07146% | -6.482% |
| `CCNc1cc2c(nn1)CCN(C(=O)c1cccc3c1OCCO3)C2` | 14.63% | 6.662% |
| `Cc1nc(N2CCCC2)ncc1-c1cc(O)nc(N2CCCCC2)n1` | 2.668% | 6.968% |
| `COc1ccc(OCC(=O)NS(=O)(=O)c2ccc(Cl)s2)cc1` | 26.03% and -2.287% | -13.18% |
| `COc1c[nH]c(C(=O)N2CCN(c3cccc(Cl)c3)CC2)cc1=O` | 10.03% and -3.715% | -21.75% |
| `O=C(O)C(F)(F)F.O=C(O)C(F)(F)F.c1c(CN2CCCC2)nc2n1CCN(CC1CC1)C2` | -1.293% and -6.939% | -7.704% and -3.085% |
| `O=C1CCC(C(=O)N2CCOC(Cc3ccc(F)cc3)C2)=NN1` (centres unmarked) | 8.253% | 11.66% |
| `O=C(c1ccc(Cl)cc1)N1CCn2c(nn(-c3cccc(Cl)c3)c2=O)C1` | 33.85% | 3.462% |
| `CNS(=O)(=O)c1ccc(CNC(=O)N(C)CC(O)COC)cc1` (centres unmarked) | 1.086% | -5.025% |
| `O=C(c1cnc(O)cc1O)N1CCCC(CCc2ccccc2F)C1` (centres unmarked) | -29.26% and -3.562% | -7.141% |
| `CC(=O)N1CCN(Cc2c(C)sc3ccccc23)CC(O)C1` (centres unmarked) | 0.192% | -4.43% |
| `CC(O)CC(C)(C)CNC(=O)Nc1cnn(-c2ccccc2F)c1` (centres unmarked) | 0.8804% and 26.97% | 2.784% |
| `Cc1cnccc1CCNC(=O)Nc1cnc(N(C)C)nc1` | -38.47% | -16.2% |
| `COc1cccc(S(=O)(=O)NC(=O)CC2CCCO2)c1` (centres unmarked) | 2.257% | -29.3% |
| `CCc1nc(C2CCCN2Cc2nnc(Cc3ccccc3)o2)no1` (centres unmarked) | 2.312% | 21.39% |
| `COc1ccc(-n2ncc3c2NC(=O)CSC3C(C)C)cc1` (centres unmarked) | 4.363% | 16.91% |
| `Cc1cccnc1NC(=O)NCc1cccnc1OC(C)C` | 27.09% | 11.58% |
| `CC1(C)[C@H](Cc2cc(CO)on2)C[C@@H]1NCc1ccc(CO)o1` | -49.11% and -7.815% | -39.87% |
| `CNC(=O)N1CCCCC1CCNS(C)(=O)=O` (centres unmarked) | -0.005976% and -23.74% | 8.982% |
| `O=C(CN1CC(c2ccccc2)CC1=O)N1CCN(c2nccs2)CC1` (centres unmarked) | 4.944% | 2.055% |
| `COCCCNc1nccc(-c2c[nH][nH]c2=O)n1` | -36.8% | -39.93% |
| `N#Cc1ccc(CCC(=O)N2CCCC(n3cncn3)C2)cc1` (centres unmarked) | 0.639% and 2.314% | 1.7% |
| `O=C(O)C(F)(F)F.c1cc(-c2ccc3nc(C4CCN(CC5CC5)CC4)nn3c2)cs1` | -17.57% | 9.481% |
| `CC(C)C(=O)N1CCC(c2c(C(N)=O)sc3ccccc23)C1` (centres unmarked) | 25.26% | -12.85% |
| `CCn1ncc(CN2CCc3nc(-c4cccnc4)nc(O)c3C2)c1C` | -22.04% | -28.04% |
| `CCn1c(=O)n(CCC(=O)N(C)Cc2ccc(C)o2)c2ccccc21` | 3.493% | -3.17% |
| `CC(O)CN1CCN(C(=O)c2ccn(-c3ccc(F)cc3)n2)CC1` (centres unmarked) | -15.51% | 2.982% |
| `Cc1nnc(NC(=O)CN2CCc3nn(C(C)C)c(=O)cc3C2)s1` | 7.957% | 0.2198% |
| `CC(Nc1ccc(CCN2CCOCC2)cc1)C(=O)N(C)CCC#N` (centres unmarked) | -22% | -5.797% |
| `COc1cc(CNC2CCCN(c3ncccn3)C2)cc2c1OCO2` (centres unmarked) | 6.989% and 17.31% | 21.94% |
| `COCc1ccccc1C(=O)N1CCC(CNC(=O)OC(C)(C)C)C1` (centres unmarked) | 14.61% | -5.433% and 11.37% |
| `Cc1c(C(=O)O)nnn1-c1cccc2cccnc12` | -8.911% and -4.683% | 12.52% |
| `COCCn1cc(C(=O)NC2CCS(=O)(=O)C2)c2ccccc2c1=O` (centres unmarked) | 28.74% | 3.571% |
| `Cn1ccc(CN2CCC(NC(=O)NC3CCCCC3)CC2)cc1=O` | -22.27% | 13.89% |
| `CCN1CC2(CC1=O)CN(C(=O)C(C)C)CCN(S(=O)(=O)CC)C2` (centres unmarked) | -9.873% | -8.923% |
| `Fc1cccc(-c2c[nH]c([C@@H]3COCCN3C3CCOCC3)n2)c1` | -4.24% and -19.75% | -11.58% |